Results as given in PubChem BioAssay AID504467 (National Center for Advancing Translational Sciences (NCATS), 2011).
The whole screen tested about 330,000 compounds, of which about 7,700 (2.3%) were called active. Inconclusive means that the source gave no clear call. Such entries were picked first, then a sample of the others. Calls come from the whole dose curve; as a rule, active = well fitted inhibition curve with a large enough effect; inconclusive = small, poorly fitted or top-dose-only effect, or effect the other way; inactive = flat fitted curve, though single readings scatter. Potencies beside an inconclusive call are fits to weak or partial responses and may not hold up.

Test: qHTS screen for small molecules that inhibit ELG1-dependent DNA repair in human embryonic kidney (HEK293T) cells expressing luciferase-tagged ELG1; note: nearly all actives have a fitted effect of over 55% in size
Settings: HEK293T ELG1-luciferase reporter, luminescence, 16 h, DNA damage induced by 5-fluorouridine; activity change, negative = inhibition: at 46.1 µM (top of the series)
In short: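 Cells (2,000 per well) received 5-fluorouridine plus test compound or DMSO and were incubated 16 hr at 37 °C, 5% CO2. Luciferase activity was read by luminescence 30 min after ONE-Glo addition; signal suppression marked inhibition of damage-induced ELG1 function.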
% is set by controls: 0 for no effect and ±100 for the full control effect; potency is the fitted concentration of half-maximal effect.

| Compound | activity change, negative = inhibition | Potency |
| --- | --- | --- |
| N#Cc1c(N)nc2c(c1-c1cccc(O)c1)CCCCCC2 | inactive: -5.09% | – |
| CCc1cccc(NC(=O)[C@@H]2CCCN2C2=NS(=O)(=O)c3ccccc32)c1 | inactive: 13.1% | – |
| CCc1nc2ccc(C(=O)NCCc3ccc(OC)cc3)cc2nc1CC | inactive: -8.13% | – |
| Cc1ccsc1/C=N/NC(=O)c1nnn(-c2nonc2N)c1C(C)C | inactive: 5.95% | – |
| O=C(NC1CCCCC1)c1cc([N+](=O)[O-])[nH]n1 | inactive: 2.75% | – |
| COc1ccc(-c2cc(C(=O)O)[nH]n2)cc1OC | inactive: -1.54% | – |
| CCC(C)NC(=O)c1ccccc1NC(=O)c1ccc(CSc2ccccc2)cc1 (stereo not drawn) | inactive: -6.54% | – |
| Cc1ccc(S(=O)(=O)NCC(=O)N(CC(=O)NC(C)(C)C)Cc2ccc3c(c2)OCO3)cc1 | inactive: 8.7% | – |
| O=C(/C=C/c1cccc([N+](=O)[O-])c1)c1ccc2c(c1)OCCO2 | – | inconclusive: 29.1 µM [activator, single point] |
| COC(=O)c1nc(NC(=O)C(C)(C)C)n[nH]1 | – | inconclusive: 20.6 µM [activator, partial curve, poor fit] |
| CN(C)c1ccc(NC(=O)c2ccc(COc3cccc(Cl)c3)o2)cc1 | – | inconclusive: 25.9 µM [activator, partial curve] |
| Oc1ccc(NCc2cccc(OCc3ccc(F)cc3)c2)cc1 | – | inconclusive: 16.4 µM [activator, partial curve, poor fit] |
| CCOC(=O)CN1C2=NCCN2c2ccccc21 | inactive: 10.4% | – |
| Cc1sc(NC(=O)C2CCCCC2C(=O)O)c(C(N)=O)c1-c1ccccc1 (stereo not drawn) | – | inconclusive: 14.6 µM [activator, partial curve] |
| COc1ccccc1NC(=O)Nc1nc(CC(=O)N2CCN(c3ccccc3F)CC2)cs1 | – | active: 16.4 µM |
| CCOC(=O)c1c(NC(=O)/C=C/C(=O)O)sc(C)c1-c1ccc(C(C)(C)C)cc1 | – | active: 11.6 µM |
| COc1ccc(CCNc2ncccc2C#N)cc1OC | – | inconclusive: 20.6 µM [activator, partial curve] |
| COC(=O)c1cccc(NC(=O)NC(=O)c2ccc(Cl)cc2)c1 | – | inconclusive: 1.03 µM [activator, full curve] |
| O=C(O)c1ccc(N2CCS(=O)(=O)CC2)cc1 | inactive: -1.09% | – |
| Cc1c(Cl)cccc1NC(=S)N1CCCCCC1 | inactive: 13.8% | – |
| CC(=O)c1cccc(NC(=O)CCNS(=O)(=O)c2cccc(C(C)=O)c2)c1 | – | inconclusive: 0.731 µM [inhibitor, single point] |
| CCc1n[n+](CC(=O)c2ccccc2)c(N)s1 | – | inconclusive: 0.82 µM [activator, full curve] |
| COc1ccccc1N1C(=O)c2ccccc2NC1c1ccc(O)cc1 (stereo not drawn) | – | inconclusive: 16.4 µM [activator, single point] |

Rewritten in CSV form: two of the compounds above.
Compound,"activity change, negative = inhibition",Potency
O=C(/C=C/c1cccc([N+](=O)[O-])c1)c1ccc2c(c1)OCCO2,–,"inconclusive: 29.1 µM [activator, single point]"
COC(=O)c1nc(NC(=O)C(C)(C)C)n[nH]1,–,"inconclusive: 20.6 µM [activator, partial curve, poor fit]"
